# ± gives the standard deviation of the averaged measurements. The list shows a part of the results, in another mix than the full data. Small differences around the control level are noise.
# Amino acid sequences for entries named in this document (tags omitted). A change or cut given only in a name is not applied to a line headed by its entry.
# UniProt Q5QJ74: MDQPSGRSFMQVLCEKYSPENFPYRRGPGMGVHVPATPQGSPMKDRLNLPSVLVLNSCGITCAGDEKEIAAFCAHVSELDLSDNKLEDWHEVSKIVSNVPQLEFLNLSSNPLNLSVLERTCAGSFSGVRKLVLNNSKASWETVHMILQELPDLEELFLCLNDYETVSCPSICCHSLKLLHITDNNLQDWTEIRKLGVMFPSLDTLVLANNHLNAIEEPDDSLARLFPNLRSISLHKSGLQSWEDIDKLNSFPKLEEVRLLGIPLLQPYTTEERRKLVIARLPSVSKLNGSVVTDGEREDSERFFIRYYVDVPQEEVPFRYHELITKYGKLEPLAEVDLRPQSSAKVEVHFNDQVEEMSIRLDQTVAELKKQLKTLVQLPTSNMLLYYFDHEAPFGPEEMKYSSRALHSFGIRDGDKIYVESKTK
# UniProt Q5VWP2: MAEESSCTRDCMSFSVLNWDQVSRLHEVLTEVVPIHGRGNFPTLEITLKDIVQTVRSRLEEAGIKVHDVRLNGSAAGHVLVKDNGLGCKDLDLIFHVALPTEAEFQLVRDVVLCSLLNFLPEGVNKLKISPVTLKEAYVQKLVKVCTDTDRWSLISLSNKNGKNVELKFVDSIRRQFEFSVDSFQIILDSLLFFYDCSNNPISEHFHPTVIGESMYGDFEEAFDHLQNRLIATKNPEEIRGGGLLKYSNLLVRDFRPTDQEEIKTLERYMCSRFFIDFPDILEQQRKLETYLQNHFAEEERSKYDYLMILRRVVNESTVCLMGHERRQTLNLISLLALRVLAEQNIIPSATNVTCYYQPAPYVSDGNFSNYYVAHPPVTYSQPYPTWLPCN
# UniProt Q5HYI8: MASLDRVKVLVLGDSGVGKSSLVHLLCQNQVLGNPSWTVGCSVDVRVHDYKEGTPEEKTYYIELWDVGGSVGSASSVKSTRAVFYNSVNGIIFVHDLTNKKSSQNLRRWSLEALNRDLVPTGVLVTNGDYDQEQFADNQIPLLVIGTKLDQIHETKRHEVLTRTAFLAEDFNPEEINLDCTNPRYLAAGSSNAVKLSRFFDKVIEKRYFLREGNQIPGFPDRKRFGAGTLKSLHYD
# UniProt Q6IPR3: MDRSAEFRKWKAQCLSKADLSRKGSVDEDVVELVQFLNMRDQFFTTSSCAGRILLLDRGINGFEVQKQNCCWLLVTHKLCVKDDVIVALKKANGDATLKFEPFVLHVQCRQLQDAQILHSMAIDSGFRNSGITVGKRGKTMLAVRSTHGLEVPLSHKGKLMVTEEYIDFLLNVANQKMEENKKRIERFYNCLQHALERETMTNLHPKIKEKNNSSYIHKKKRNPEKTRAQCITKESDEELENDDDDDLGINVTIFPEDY
# UniProt Q5T440: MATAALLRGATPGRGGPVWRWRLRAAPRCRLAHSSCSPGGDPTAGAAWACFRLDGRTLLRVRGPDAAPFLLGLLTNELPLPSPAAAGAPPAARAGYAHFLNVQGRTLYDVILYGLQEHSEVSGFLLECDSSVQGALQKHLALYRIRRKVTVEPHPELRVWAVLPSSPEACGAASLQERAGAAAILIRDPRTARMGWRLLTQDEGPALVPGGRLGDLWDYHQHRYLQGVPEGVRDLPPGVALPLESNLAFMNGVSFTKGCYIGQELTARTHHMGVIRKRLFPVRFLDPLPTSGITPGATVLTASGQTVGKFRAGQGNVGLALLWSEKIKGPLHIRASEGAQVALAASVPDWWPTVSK
# UniProt Q6NUQ1: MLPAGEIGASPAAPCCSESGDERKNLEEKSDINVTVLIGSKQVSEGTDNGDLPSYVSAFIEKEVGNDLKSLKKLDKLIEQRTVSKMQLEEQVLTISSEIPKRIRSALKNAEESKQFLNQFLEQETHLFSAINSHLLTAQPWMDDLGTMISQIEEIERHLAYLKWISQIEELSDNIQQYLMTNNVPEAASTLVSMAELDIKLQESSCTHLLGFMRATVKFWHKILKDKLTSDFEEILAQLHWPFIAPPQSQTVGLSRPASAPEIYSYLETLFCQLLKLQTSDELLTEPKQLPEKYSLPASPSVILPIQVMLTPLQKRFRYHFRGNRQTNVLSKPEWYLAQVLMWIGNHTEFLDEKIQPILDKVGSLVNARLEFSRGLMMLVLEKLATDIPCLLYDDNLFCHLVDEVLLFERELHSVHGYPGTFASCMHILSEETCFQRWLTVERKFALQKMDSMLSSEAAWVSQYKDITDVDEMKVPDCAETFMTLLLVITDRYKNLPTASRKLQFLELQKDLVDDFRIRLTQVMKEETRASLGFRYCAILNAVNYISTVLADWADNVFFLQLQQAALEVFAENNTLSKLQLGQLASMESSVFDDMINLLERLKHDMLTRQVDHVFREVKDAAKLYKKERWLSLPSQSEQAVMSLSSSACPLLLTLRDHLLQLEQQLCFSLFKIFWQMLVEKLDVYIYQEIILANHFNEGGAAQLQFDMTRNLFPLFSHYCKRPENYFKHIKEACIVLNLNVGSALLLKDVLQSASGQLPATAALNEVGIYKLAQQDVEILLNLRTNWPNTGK
# UniProt Q6P996: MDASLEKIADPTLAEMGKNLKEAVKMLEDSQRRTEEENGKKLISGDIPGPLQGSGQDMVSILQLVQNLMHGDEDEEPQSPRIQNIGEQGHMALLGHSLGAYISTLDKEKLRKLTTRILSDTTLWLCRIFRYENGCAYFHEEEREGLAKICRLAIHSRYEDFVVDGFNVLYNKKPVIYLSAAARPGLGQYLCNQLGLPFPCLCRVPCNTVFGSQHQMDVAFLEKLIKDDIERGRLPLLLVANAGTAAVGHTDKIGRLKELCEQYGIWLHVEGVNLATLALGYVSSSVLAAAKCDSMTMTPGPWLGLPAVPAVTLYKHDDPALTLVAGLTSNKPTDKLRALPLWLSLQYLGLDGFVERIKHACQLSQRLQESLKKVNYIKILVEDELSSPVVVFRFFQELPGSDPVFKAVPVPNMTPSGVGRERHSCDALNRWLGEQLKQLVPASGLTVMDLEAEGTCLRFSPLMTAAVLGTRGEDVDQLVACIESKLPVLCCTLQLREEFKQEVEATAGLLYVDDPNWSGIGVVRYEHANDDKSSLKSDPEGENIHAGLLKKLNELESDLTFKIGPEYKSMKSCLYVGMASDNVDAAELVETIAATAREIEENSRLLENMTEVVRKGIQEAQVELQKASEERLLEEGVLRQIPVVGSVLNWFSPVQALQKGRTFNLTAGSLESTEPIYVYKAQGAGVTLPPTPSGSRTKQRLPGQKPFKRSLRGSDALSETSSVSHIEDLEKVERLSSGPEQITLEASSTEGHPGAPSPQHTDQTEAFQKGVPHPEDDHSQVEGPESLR
# UniProt Q5GLZ8: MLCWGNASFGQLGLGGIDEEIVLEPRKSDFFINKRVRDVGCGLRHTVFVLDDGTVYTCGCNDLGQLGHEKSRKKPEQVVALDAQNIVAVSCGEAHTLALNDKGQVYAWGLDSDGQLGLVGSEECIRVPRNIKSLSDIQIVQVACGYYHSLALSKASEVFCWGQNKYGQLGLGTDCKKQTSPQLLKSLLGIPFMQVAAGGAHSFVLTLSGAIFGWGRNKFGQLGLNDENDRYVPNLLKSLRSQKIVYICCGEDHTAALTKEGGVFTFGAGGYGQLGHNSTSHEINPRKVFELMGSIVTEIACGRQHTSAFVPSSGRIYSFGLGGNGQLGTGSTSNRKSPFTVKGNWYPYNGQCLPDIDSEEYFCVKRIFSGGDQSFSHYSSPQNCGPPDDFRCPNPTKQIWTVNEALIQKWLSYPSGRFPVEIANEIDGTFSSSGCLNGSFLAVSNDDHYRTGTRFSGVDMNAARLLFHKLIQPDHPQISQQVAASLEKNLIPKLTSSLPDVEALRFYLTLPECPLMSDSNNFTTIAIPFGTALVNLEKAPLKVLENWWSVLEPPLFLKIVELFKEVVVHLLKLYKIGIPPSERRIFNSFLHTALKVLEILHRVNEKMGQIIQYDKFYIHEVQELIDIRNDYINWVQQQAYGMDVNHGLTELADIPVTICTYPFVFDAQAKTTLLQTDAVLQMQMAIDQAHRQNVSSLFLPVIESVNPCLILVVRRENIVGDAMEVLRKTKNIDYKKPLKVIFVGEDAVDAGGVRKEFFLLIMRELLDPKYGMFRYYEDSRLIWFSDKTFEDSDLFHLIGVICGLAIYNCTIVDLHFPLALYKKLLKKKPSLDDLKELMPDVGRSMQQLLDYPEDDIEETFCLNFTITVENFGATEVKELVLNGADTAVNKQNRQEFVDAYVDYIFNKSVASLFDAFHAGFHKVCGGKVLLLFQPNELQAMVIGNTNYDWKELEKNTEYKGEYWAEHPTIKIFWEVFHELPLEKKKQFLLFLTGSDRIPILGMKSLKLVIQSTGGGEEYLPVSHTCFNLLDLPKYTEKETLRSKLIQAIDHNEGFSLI
# UniProt Q6P1R4: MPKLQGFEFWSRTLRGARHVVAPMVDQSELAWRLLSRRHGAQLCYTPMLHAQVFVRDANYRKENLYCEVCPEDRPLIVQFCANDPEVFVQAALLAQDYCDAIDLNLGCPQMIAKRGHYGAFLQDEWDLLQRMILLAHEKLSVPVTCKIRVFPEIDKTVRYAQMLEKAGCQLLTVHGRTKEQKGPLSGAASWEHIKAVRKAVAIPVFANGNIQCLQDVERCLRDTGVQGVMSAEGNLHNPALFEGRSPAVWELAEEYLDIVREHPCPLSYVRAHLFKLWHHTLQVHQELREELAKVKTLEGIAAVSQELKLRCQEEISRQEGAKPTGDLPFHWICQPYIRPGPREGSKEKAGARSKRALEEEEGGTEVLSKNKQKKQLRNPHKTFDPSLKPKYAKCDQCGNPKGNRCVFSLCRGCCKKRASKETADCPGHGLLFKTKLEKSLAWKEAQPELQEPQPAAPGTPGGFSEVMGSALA
# UniProt Q6NUQ4: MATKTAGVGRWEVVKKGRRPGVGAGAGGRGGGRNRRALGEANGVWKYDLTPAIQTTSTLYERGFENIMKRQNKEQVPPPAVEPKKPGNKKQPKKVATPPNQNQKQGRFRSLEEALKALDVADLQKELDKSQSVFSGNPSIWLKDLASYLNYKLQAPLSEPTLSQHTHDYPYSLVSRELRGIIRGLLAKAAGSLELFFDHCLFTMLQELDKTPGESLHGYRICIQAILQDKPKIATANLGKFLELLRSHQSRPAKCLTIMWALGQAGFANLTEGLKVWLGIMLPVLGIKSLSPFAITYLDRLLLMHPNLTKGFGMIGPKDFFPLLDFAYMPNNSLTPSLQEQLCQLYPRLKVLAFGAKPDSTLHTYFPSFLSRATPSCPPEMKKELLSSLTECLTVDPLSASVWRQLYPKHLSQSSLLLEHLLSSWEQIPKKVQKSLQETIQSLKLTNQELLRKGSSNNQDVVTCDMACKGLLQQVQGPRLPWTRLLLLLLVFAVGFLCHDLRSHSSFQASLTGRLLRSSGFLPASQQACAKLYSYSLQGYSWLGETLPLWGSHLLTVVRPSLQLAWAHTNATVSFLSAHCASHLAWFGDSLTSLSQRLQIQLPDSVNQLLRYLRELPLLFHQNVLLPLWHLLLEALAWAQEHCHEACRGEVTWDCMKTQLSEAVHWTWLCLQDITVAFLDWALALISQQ
# UniProt Q6NUK1: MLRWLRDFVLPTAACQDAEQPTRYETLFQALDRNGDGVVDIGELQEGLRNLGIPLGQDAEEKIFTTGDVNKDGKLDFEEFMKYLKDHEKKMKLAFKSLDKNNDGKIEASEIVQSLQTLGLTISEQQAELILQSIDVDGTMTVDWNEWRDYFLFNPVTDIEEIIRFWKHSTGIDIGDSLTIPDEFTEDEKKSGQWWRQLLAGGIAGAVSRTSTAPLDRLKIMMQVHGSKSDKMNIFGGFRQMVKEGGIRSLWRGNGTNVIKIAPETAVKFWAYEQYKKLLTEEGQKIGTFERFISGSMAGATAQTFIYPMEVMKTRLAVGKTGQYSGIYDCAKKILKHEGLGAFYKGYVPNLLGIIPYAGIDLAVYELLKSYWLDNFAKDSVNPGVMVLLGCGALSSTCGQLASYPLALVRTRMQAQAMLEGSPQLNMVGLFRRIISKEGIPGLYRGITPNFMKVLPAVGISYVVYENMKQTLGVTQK
# UniProt Q9Y5K5, whole entry: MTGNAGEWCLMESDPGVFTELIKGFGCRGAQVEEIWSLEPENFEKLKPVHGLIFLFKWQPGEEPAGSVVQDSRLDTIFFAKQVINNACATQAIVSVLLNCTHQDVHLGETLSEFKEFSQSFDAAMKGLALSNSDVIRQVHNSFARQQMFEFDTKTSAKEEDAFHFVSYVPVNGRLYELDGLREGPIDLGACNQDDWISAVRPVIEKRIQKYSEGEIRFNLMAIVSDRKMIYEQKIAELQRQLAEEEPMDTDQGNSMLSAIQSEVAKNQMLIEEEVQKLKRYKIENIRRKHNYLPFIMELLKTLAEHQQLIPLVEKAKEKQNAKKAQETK
# UniProt Q5VST6: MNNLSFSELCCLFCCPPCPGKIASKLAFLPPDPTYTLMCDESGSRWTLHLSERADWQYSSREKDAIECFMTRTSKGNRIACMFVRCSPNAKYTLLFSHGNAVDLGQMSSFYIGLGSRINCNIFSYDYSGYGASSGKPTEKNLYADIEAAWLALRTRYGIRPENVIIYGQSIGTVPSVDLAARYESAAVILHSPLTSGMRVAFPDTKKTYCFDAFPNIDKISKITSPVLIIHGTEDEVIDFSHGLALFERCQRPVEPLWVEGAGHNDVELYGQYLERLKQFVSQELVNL
# Compound: Nc1ncnc2c1ncn2[C@@H]1O[C@H](COP(=O)(O)OP(=O)(O)OP(=O)(O)O)[C@@H](O)[C@H]1O [adenosine triphosphate]
# Assay: NP40-soluble protein abundance relative to vehicle (solubility fold change) (ratio); higher = more soluble protein in presence of ATP
# Procedure, shortened: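 Each value is a fold change relative to the detergent-processed vehicle, calculated per replicate from vsn-normalised intensities. Jurkat crude lysate received eight concentrations (0.1 to 10 mM) for 10 min at room temperature and 3 min at 37 °C, then was solubilised in 0.8% NP40 with benzonase (60 min, 4 °C). The ultracentrifuged supernatant was TMT-labelled and run by LC-MS/MS in three independent experiments.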
Target,NP40-soluble protein abundance (concentration: 0.1mM),NP40-soluble protein abundance (concentration: 0.5mM)
TBCEL (UniProt Q5QJ74),1.14 ± 0.087,1.04 ± 0.061
ALKBH2 (UniProt Q6NS38),1 ± 0.065,1.03 ± 0.053
UniProt Q66K74 and related entries,1 ± 0.02,1 ± 0.049
UniProt Q5VWP2,1.04 ± 0.04,0.966 ± 0.041
UniProt Q5THK1 and related entries,0.921 ± 0.12,0.892 ± 0.085
Q5JTV1 and related entries (UniProt Q9UKD1),1.06 ± 0.033,1.08 ± 0.079
ZNF318 (UniProt Q5VUA4),0.975 ± 0.11,1.04 ± 0.09
CPTP (UniProt Q5TA50),1.01 ± 0.018,0.985 ± 0.044
OCIAD2 (UniProt Q56VL3),0.929 ± 0.052,0.895 ± 0.084
RARS2 (UniProt Q5T160),1.05 ± 0.065,0.995 ± 0.062
NIPBL (UniProt Q6KC79),1.028 ± 0.0066,1.1 ± 0.049
RETSAT (UniProt Q6NUM9),0.93 ± 0.092,0.906 ± 0.094
TAPT1 (UniProt Q6NXT6),1.04 ± 0.035,1.03 ± 0.049
UniProt Q6IQ49 and related entries,0.932 ± 0.022,0.929 ± 0.014
RABL3 (UniProt Q5HYI8),1.06 ± 0.019,1.04 ± 0.098
TYW3 (UniProt Q6IPR3),0.993 ± 0.12,0.992 ± 0.11
UniProt Q6P4E1 and related entries,0.908 ± 0.11,0.815 ± 0.16
HECTD3 (UniProt Q5T447),1.02 ± 0.057,1.04 ± 0.032
CTR9 (UniProt Q6PD62),1.01 ± 0.055,1.02 ± 0.048
UniProt Q6P2H3 and related entries,0.95 ± 0.048,0.939 ± 0.032
UniProt Q5SWX8 and related entries,0.965 ± 0.052,1.03 ± 0.039
UniProt Q5T440,1.04 ± 0.037,1.005 ± 0.01
UniProt Q6P087 and related entries,0.92 ± 0.099,0.952 ± 0.17
RINT1 (UniProt Q6NUQ1),1.01 ± 0.097,1.03 ± 0.085
CIAPIN1 (UniProt Q6FI81),0.964 ± 0.023,0.98 ± 0.011

Target,NP40-soluble protein abundance (concentration: 0.1mM),NP40-soluble protein abundance (concentration: 0.5mM)
UniProt Q5T0N5-3|Q5T0N5-4,1.02 ± 0.014,1.02 ± 0.028
SIGIRR (UniProt Q6IA17),0.994 ± 0.016,1.02 ± 0.06
UniProt Q6P996 and related entries,1.05 ± 0.038,1.04 ± 0.063
MRM1 (UniProt Q6IN84),0.994 ± 0.1,1.07 ± 0.13
UniProt Q6PCB8 and related entries,0.913 ± 0.057,0.922 ± 0.079
UniProt Q5T3J3,0.962 ± 0.042,1.02 ± 0.075
UniProt Q6NT76 and related entries,0.953 ± 0.068,0.935 ± 0.033
NXN (UniProt Q6DKJ4),0.9 ± 0.12,1 ± 0.11
UniProt Q5JSP0 and related entries,0.997 ± 0.012,1.02 ± 0.026
UniProt Q5R372 and related entries,1.03 ± 0.014,1.02 ± 0.027
MRPL14 (UniProt Q6P1L8),0.962 ± 0.081,0.977 ± 0.15
UHRF1BP1 (UniProt Q6BDS2),1.02 ± 0.04,1.07 ± 0.075
UniProt Q5JVF3 and related entries,1.06 ± 0.083,1.04 ± 0.082
UniProt Q5GLZ8 and related entries,1.06 ± 0.092,1.06 ± 0.037
UniProt Q5SGD2 and related entries,1.06 ± 0.022,0.954 ± 0.09
UniProt Q5EBL8 and related entries,0.976 ± 0.18,0.925 ± 0.12
UniProt Q68CZ6,0.983 ± 0.021,1 ± 0.033
RPRD2 (UniProt Q5VT52),1.02 ± 0.036,1.05 ± 0.046
Q5TH58 and related entries (UniProt Q9H6K1),1.03 ± 0.061,1.03 ± 0.068
MYSM1 (UniProt Q5VVJ2),1.01 ± 0.024,0.987 ± 0.053
UniProt Q5T2E6 and related entries,1.03 ± 0.054,1.08 ± 0.14
GLT8D1 (UniProt Q68CQ7),0.968 ± 0.055,0.999 ± 0.011
SFT2D3 (UniProt Q587I9),0.935 ± 0.097,0.893 ± 0.11
Q5JVZ5 and related entries (UniProt Q96JJ3),1.03 ± 0.061,1.08 ± 0.083
METTL2B (UniProt Q6P1Q9),1.01 ± 0.053,1.04 ± 0.074

Target,NP40-soluble protein abundance (concentration: 0.1mM),NP40-soluble protein abundance (concentration: 0.5mM)
UniProt Q6P1X5 and related entries,1.06 ± 0.036,1.06 ± 0.079
UniProt Q6P1R4 and related entries,1.02 ± 0.045,1.01 ± 0.055
BOLA3 (UniProt Q53S33),1.08 ± 0.19,0.903 ± 0.094
UniProt Q5BJH7 and related entries,0.643 ± 0.5,1.02 ± 0.015
Q5JY65 and related entries (UniProt Q9BZJ0),1.04 ± 0.033,1.06 ± 0.032
Q5TBM3 and related entries (UniProt Q92598),0.988 ± 0.058,1.01 ± 0.076
UniProt Q5T011 and related entries,0.946 ± 0.024,0.942 ± 0.097
UniProt Q6NUQ4 and related entries,0.993 ± 0.024,1.03 ± 0.022
MED27 (UniProt Q6P2C8),0.969 ± 0.11,0.985 ± 0.15
SFXN4 (UniProt Q6P4A7),0.999 ± 0.058,0.984 ± 0.046
SLC25A24 (UniProt Q6NUK1),0.888 ± 0.089,0.919 ± 0.054
TTC27 (UniProt Q6P3X3),1.04 ± 0.061,1.03 ± 0.054
UniProt Q5W0B1,0.941 ± 0.063,0.898 ± 0.073
TP53I3 (UniProt Q53FA7),0.978 ± 0.015,0.992 ± 0.036
ARID2 (UniProt Q68CP9),1.03 ± 0.04,1.16 ± 0.056
MBLAC2 (UniProt Q68D91),1.08 ± 0.097,1.03 ± 0.058
NAIF1 (UniProt Q69YI7),1.03 ± 0.19,0.917 ± 0.029
ERICH5 (UniProt Q6P6B1),0.903 ± 0.071,0.897 ± 0.059
UniProt Q5VIR6-4,0.997 ± 0.01,0.994 ± 0.033
ARHGAP17 (UniProt Q68EM7),1.02 ± 0.032,1.02 ± 0.045
UniProt Q6P1X6 and related entries,1.04 ± 0.051,0.966 ± 0.051
TRMT12 (UniProt Q53H54),1.03 ± 0.033,1.04 ± 0.062
AGK (UniProt Q53H12),1.01 ± 0.044,1.02 ± 0.046
MIA3 (UniProt Q5JRA6),0.978 ± 0.019,0.986 ± 0.024
UniProt Q6P499,0.951 ± 0.059,1.01 ± 0.06

Target,NP40-soluble protein abundance (concentration: 0.1mM),NP40-soluble protein abundance (concentration: 0.5mM)
UniProt Q6DHV7-2|Q6DHV7 and related entries,1.03 ± 0.022,1.02 ± 0.055
SAMD9 (UniProt Q5K651),1.06 ± 0.089,1.06 ± 0.087
Q5VZU9 and related entries (UniProt P29144),1.05 ± 0.069,1.06 ± 0.051
Q5TCJ5 and related entries (UniProt Q9H3S1),1.04 ± 0.048,1.05 ± 0.033
UniProt Q5T5Y3 and related entries,1.01 ± 0.06,1.01 ± 0.084
Q5VYH9 and related entries (UniProt Q9HBG7),0.957 ± 0.081,0.939 ± 0.064
DENND1B (UniProt Q6P3S1),1.07 ± 0.046,1.02 ± 0.039
UniProt Q6P587 and related entries,0.964 ± 0.02,1.04 ± 0.016
UniProt Q659A1,1 ± 0.12,0.984 ± 0.071
UniProt Q5T0F9 and related entries,1.02 ± 0.039,1.01 ± 0.052
UniProt Q5T0B9,1 ± 0.076,0.974 ± 0.076
UniProt Q5T4S7 and related entries,0.993 ± 0.036,1 ± 0.056
UniProt Q5JTJ3 and related entries,1.41 ± 0.57,0.9034 ± 0.0057
Q5LJA5 and related entries (UniProt Q9Y5K5),0.993 ± 0.047,0.985 ± 0.033
UniProt Q63HQ0,1.01 ± 0.038,0.966 ± 0.02
Q5SZG2 and related entries (UniProt Q8TAK5),0.949 ± 0.011,0.925 ± 0.065
EDC4 (UniProt Q6P2E9),1 ± 0.021,1.02 ± 0.034
ZMYM1 (UniProt Q5SVZ6),1.02 ± 0.012,0.988 ± 0.033
RAB12 (UniProt Q6IQ22),1.07 ± 0.044,1.04 ± 0.051
UniProt Q6GYQ0 and related entries,0.998 ± 0.025,0.972 ± 0.061
ALKBH5 (UniProt Q6P6C2),1.01 ± 0.014,1.25 ± 0.032
UniProt Q5VST6,0.937 ± 0.036,0.943 ± 0.043
UniProt Q5VVQ6 and related entries,1.07 ± 0.11,1.02 ± 0.045
DNTTIP2 (UniProt Q5QJE6),1.036 ± 0.0089,1.2 ± 0.033

# Source: the supplement of paper PMC6411743
